Measured values published in US20060068386A1, “Complete genome and protein sequence of the hyperthermophile methanopyrus kandleri av19 and monophyly of archael methanogens and methods of use thereof” (priority 2002, published 2006).
Results are given in words; binding and its absence hold for the method and conditions named. For part of these data: In cells and extracts the contact can be indirect. Some results given as binding are weak or reduced against the parent protein; the word gives no strength. Each block holds one binder with its values, some of them ahead of it.

How the values were obtained:
[1] = target: T1, M. kandleri AV19 DNA polymerase family B (Mka PolB) (MK1039) (Methanopyrus kandleri AV19); test: primer extension assay with and without PCNA (5.6 µM subunits), no clamp loader; indirect
T1 sequence: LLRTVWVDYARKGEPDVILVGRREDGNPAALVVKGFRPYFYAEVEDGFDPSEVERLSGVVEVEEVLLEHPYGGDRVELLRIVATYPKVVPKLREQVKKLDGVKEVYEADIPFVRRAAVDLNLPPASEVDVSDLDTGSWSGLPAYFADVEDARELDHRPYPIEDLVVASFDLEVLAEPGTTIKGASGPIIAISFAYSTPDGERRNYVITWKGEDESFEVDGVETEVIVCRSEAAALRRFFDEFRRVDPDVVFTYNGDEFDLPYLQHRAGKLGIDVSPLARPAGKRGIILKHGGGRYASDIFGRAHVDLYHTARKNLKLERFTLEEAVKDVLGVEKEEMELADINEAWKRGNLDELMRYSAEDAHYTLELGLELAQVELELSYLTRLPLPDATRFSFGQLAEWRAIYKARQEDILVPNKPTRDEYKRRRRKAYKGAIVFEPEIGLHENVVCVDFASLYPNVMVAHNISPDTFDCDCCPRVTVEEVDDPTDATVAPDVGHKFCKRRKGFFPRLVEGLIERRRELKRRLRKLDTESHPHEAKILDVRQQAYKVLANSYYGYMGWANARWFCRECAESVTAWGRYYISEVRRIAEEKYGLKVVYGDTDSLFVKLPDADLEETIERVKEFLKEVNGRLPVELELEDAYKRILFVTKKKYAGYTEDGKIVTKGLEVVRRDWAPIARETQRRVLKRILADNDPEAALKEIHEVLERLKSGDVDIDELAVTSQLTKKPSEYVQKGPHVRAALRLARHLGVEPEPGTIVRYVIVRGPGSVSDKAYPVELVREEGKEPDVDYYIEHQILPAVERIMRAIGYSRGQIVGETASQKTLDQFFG

[2] = target: T2, M. kandleri AV19 eukaryotic-type DNA primase p46 subunit (MK1394), short variant (Methanopyrus kandleri AV19) (UniProt Q8TVJ5); test: SDS-PAGE of the co-purified complex (FIG. 24)
T2 sequence: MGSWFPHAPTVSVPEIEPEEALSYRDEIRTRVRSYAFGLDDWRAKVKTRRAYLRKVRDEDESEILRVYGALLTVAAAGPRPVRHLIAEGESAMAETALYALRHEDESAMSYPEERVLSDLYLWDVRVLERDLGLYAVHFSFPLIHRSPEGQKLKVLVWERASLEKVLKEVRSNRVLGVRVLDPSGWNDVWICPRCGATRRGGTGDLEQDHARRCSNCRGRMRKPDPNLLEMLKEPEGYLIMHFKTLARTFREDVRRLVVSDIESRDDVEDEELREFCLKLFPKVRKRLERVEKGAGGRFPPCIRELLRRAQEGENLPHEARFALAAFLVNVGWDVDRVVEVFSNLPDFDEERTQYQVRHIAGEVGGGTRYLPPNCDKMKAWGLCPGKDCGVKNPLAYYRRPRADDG

[3] = target: T2, M. kandleri AV19 eukaryotic-type DNA primase p46 subunit (MK1394), short variant (Methanopyrus kandleri AV19); test: lysates mixed about 1:1, heated at 80 °C, co-purified on Heparin-Sepharose

binding [1]: binds
B1: M. kandleri AV19 PCNA (MK1030), DNA polymerase sliding clamp (other)
chain: LVEFRAYQEEARYFKYAFNAAGKVVEEAPLIVTENGIVSRAMDASHIAMAVLEMPWEMFDEYEPPSDELMYGLDMEEVTRIVRRARVTDEITLEGEDEEEVIIKLGSSGYEREFRLRSIDIDDIPDEPELDFAVEVTVVPDFIQDAVRDADLVSDTVKVGAKGNTFYFKAEGERGRVIPKVQEGAEALLTFEVEEDVETAYPLDYLKDMIQAAQGAESVRIRLGQDMPLELTFRIGPAGEGKLTFYLAPRVEE

binding [2]: binds
binding [3]: binds
B2: M. kandleri AV19 eukaryotic-type DNA primase p41 subunit (MK0586) (enzyme)
chain: MDFYSPTFHSRECETAGARKMDVKTLVGEYYASLPSGVLREFVEDPSSREWAYTFLKGRDIVFTRKRRLDEVSGFLELYHSTGKFKNPKSWEGLLGWDLVIDVDAELPEEPEAFLKSLGRLLKDVVIACDELRRALGFPRPDVVNFSGSKGFHVRYFDSTVRRWLRWDLHERRGIKPGEIIQRVGRGVVWLAREGFVAGDRVRALREGLLDDSMYDLKRLIRCVGSMNVKSLLPAVPVWSREGGRWVDFRDEVLGMNDLELGCLVAHRTLTWPGRGGLGVVLSRVLDLDTDADPEDPSDFVEVWGNVMSVLGELKP
